Experimental data: PubChem BioAssay AID652243 (Drosophila RNAi Screening Center, 2013)
The deposit covers about 24,000 reagents; shown is an unselected part of those that have a named target and a result. Over the whole deposit, 246 (1%) were called active. 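Plates not normalised; calls are printed but the firefly/Renilla ratio behind them is not deposited; fold cut for lowering reported inconsistently.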 The raw values are shown without normalisation. The record does not give: the amount of reagent.

Assay: 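Fly genes required for human androgen receptor driven transcription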 (primary screen)
System: Drosophila S2R+ cells
Knock-down reagent: long dsRNA against Drosophila genes
Timing: 72 h (48 h, then 24 h hormone)
Challenge: synthetic androgen R1881 at 10 nM for 24 h
Measurement: 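Per-well raw luminescence of the androgen-driven firefly reporter and of the Renilla control, two replicates each, without normalisation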
Reading the numbers: firefly reporter light: higher = more light from androgen-responsive reporter; Renilla control light: higher = more constitutive control signal (cell number, transfection)
Hit rule: 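Hit when the log firefly-to-Renilla ratio dropped or increased by a fixed fold versus the mean of GFP or LacZ controls across duplicate plates; lowering cut given as 1.5 and as 3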
Meaning of the calls: active = hit: reporter lowered or raised; inactive = no hit

With knock-down of PGRP-SA (Peptidoglycan recognition protein SA) [DRSC19420], the record shows firefly reporter light, replicate 1 = 3.88e5; firefly reporter light, replicate 2 = 4.69e5; Renilla control light, replicate 1 = 3.84e6; Renilla control light, replicate 2 = 3.37e6; inactive. With knock-down of PpD3 (Protein phosphatase D3) [DRSC16796], the screen gave firefly reporter light, replicate 1 = 95475; firefly reporter light, replicate 2 = 1.25e5; Renilla control light, replicate 1 = 2.15e6; Renilla control light, replicate 2 = 2.18e6; inactive. Against PpD3 (Protein phosphatase D3) [DRSC36658] the deposit lists inactive. PpD3 (Protein phosphatase D3) [DRSC36659] scored inactive. Knock-down of CAH6 (Carbonic anhydrase 6) [DRSC15505] resulted in: firefly reporter light, replicate 1 = 2.18e5; firefly reporter light, replicate 2 = 2.04e5; Renilla control light, replicate 1 = 2.58e6; Renilla control light, replicate 2 = 2.78e6; inactive. With knock-down of Ocho [DRSC11239], the screen gave firefly reporter light, replicate 1 = 2.74e5; firefly reporter light, replicate 2 = 2.50e5; Renilla control light, replicate 1 = 2.32e6; Renilla control light, replicate 2 = 2.16e6; inactive.

Ocho [DRSC28920] scored firefly reporter light, replicate 1 = 3.69e5; firefly reporter light, replicate 2 = 3.77e5; Renilla control light, replicate 1 = 7.39e5; Renilla control light, replicate 2 = 9.87e5; inactive. CG12594 [DRSC14532] scored firefly reporter light, replicate 1 = 1.57e5; firefly reporter light, replicate 2 = 1.57e5; Renilla control light, replicate 1 = 2.09e6; Renilla control light, replicate 2 = 2.25e6; inactive. CG12594 [DRSC27229] gave firefly reporter light, replicate 1 = 2.61e5; firefly reporter light, replicate 2 = 2.99e5; Renilla control light, replicate 1 = 6.05e5; Renilla control light, replicate 2 = 6.39e5; inactive. Depletion of CG13033 [DRSC09913] came out at: firefly reporter light, replicate 1 = 2.19e5; firefly reporter light, replicate 2 = 1.37e5; Renilla control light, replicate 1 = 2.17e6; Renilla control light, replicate 2 = 1.59e6; inactive. With knock-down of CG13033 [DRSC25379] the results were firefly reporter light, replicate 1 = 9.18e5; firefly reporter light, replicate 2 = 9.17e5; Renilla control light, replicate 1 = 9.27e5; Renilla control light, replicate 2 = 1.15e6; inactive. For lncRNA:CR33942 (long non-coding RNA:CR33942) [DRSC37857], the entry reads firefly reporter light, replicate 1 = 7.75e5; firefly reporter light, replicate 2 = 6.96e5; Renilla control light, replicate 1 = 2.20e6; Renilla control light, replicate 2 = 2.01e6; inactive.

Silencing of lncRNA:CR33942 (long non-coding RNA:CR33942) [DRSC39119] came out at: firefly reporter light, replicate 1 = 1.02e6; firefly reporter light, replicate 2 = 7.81e5; Renilla control light, replicate 1 = 1.98e6; Renilla control light, replicate 2 = 1.77e6; inactive. mbm (mushroom body miniature) [DRSC00319] gave firefly reporter light, replicate 1 = 8.23e5; firefly reporter light, replicate 2 = 5.08e5; Renilla control light, replicate 1 = 2.96e6; Renilla control light, replicate 2 = 1.41e6; inactive. After knock-down of Cks85A (Cyclin-dependent kinase subunit 85A) [DRSC16562], the screen gave firefly reporter light, replicate 1 = 84373; firefly reporter light, replicate 2 = 70327; Renilla control light, replicate 1 = 2.27e6; Renilla control light, replicate 2 = 2.02e6; inactive. Against corn (cornetto) [DRSC11021], the entry reads firefly reporter light, replicate 1 = 1.29e6; firefly reporter light, replicate 2 = 4.96e5; Renilla control light, replicate 1 = 1.99e6; Renilla control light, replicate 2 = 9.22e5; inactive. corn (cornetto) [DRSC21943] showed firefly reporter light, replicate 1 = 5.25e5; firefly reporter light, replicate 2 = 6.23e5; Renilla control light, replicate 1 = 1.57e6; Renilla control light, replicate 2 = 1.57e6; inactive. After knock-down of corn (cornetto) [DRSC27306], the record shows firefly reporter light, replicate 1 = 6.15e5; firefly reporter light, replicate 2 = 5.27e5; Renilla control light, replicate 1 = 6.82e5; Renilla control light, replicate 2 = 7.27e5; inactive.

Silencing of CG34328 [DRSC38793] gave: firefly reporter light, replicate 1 = 1.01e6; firefly reporter light, replicate 2 = 8.77e5; Renilla control light, replicate 1 = 1.98e6; Renilla control light, replicate 2 = 1.48e6; inactive. CG13516 [DRSC04159] scored firefly reporter light, replicate 1 = 4.02e5; firefly reporter light, replicate 2 = 3.10e5; Renilla control light, replicate 1 = 2.32e6; Renilla control light, replicate 2 = 1.59e6; inactive. With knock-down of CG7789 [DRSC16312], the screen gave firefly reporter light, replicate 1 = 91181; firefly reporter light, replicate 2 = 1.01e5; Renilla control light, replicate 1 = 8.65e5; Renilla control light, replicate 2 = 6.72e5; inactive. CG7789 [DRSC39278] scored inactive. For CG9411 [DRSC20184], the values are firefly reporter light, replicate 1 = 62789; firefly reporter light, replicate 2 = 62854; Renilla control light, replicate 1 = 9.28e5; Renilla control light, replicate 2 = 8.84e5; inactive. After knock-down of CG9411 [DRSC26840] the results were firefly reporter light, replicate 1 = 4.00e5; firefly reporter light, replicate 2 = 3.89e5; Renilla control light, replicate 1 = 6.75e5; Renilla control light, replicate 2 = 8.59e5; inactive.

Loxl2 (Lysyl oxidase-like 2) [DRSC04469] showed firefly reporter light, replicate 1 = 9.62e5; firefly reporter light, replicate 2 = 6.22e5; Renilla control light, replicate 1 = 1.43e6; Renilla control light, replicate 2 = 1.33e6; inactive. CG16890 [DRSC01890] gave firefly reporter light, replicate 1 = 1.23e6; firefly reporter light, replicate 2 = 1.04e6; Renilla control light, replicate 1 = 1.90e6; Renilla control light, replicate 2 = 1.70e6; inactive. CG16890 [DRSC29892] gave firefly reporter light, replicate 1 = 2.43e5; firefly reporter light, replicate 2 = 3.80e5; Renilla control light, replicate 1 = 8.20e5; Renilla control light, replicate 2 = 1.08e6; inactive.

3 of these entries, reformatted:
Target gene | amplicon | firefly reporter light, replicate 1 | firefly reporter light, replicate 2 | Renilla control light, replicate 1 | Renilla control light, replicate 2 | Call
Ocho | DRSC28920 | 3.69e5 | 3.77e5 | 7.39e5 | 9.87e5 | inactive
CG12594 | DRSC14532 | 1.57e5 | 1.57e5 | 2.09e6 | 2.25e6 | inactive
CG12594 | DRSC27229 | 2.61e5 | 2.99e5 | 6.05e5 | 6.39e5 | inactive
